Test results taken from patent US20070054848A1, “Composition and method for nerve regeneration” (priority 2003, published 2007).
No constants are given. Whether binding was seen depends on the method and setting. For part of these data: In cells and extracts the contact can be indirect. Some results given as binding are weak or reduced against the parent protein; the word gives no strength. For part of these data: Tags and fused reporters may be left off the sequences shown.

Chains of the proteins cited; added tags and fusions are not shown. Lines headed by an entry give the natural chain unless they say otherwise; changes in a name come on top.
UniProt O75116: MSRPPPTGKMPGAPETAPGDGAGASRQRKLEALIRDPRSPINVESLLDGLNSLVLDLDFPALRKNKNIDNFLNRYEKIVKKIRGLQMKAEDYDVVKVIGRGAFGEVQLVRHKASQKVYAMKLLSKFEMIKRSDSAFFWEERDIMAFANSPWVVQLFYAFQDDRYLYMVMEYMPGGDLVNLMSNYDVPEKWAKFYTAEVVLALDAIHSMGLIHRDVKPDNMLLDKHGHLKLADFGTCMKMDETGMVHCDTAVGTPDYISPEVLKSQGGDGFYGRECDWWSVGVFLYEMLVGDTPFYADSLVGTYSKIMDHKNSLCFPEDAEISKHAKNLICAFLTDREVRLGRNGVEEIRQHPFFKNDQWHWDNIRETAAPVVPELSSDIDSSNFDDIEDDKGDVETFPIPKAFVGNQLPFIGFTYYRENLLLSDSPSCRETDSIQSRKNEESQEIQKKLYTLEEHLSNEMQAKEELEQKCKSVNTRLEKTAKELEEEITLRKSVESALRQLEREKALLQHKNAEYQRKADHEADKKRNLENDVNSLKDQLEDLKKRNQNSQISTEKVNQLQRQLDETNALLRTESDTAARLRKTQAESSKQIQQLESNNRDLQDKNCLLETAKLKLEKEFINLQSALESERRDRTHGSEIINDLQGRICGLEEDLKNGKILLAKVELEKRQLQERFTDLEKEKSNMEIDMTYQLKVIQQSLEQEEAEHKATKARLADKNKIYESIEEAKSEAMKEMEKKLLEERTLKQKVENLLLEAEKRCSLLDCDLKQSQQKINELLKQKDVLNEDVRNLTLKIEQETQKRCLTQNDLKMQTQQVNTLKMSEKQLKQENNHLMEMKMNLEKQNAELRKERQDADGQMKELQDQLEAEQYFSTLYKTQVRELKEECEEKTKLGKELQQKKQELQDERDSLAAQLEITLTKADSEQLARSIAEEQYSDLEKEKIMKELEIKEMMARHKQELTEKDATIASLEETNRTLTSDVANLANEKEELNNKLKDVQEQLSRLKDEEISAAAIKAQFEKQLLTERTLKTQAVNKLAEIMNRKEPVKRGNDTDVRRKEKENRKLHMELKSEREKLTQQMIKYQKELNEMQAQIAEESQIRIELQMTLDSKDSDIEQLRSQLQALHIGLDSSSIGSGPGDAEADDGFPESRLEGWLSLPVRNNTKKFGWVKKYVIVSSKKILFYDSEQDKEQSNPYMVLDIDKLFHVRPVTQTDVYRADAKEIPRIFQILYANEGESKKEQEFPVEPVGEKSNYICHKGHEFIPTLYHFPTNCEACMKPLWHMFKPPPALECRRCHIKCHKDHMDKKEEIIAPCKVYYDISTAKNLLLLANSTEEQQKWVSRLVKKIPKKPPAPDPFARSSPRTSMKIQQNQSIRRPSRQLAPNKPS
UniProt P61586: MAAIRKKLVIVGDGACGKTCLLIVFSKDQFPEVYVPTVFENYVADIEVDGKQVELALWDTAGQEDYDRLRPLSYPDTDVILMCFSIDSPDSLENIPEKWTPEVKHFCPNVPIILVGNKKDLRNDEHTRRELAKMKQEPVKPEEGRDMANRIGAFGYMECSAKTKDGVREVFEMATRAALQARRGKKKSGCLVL
UniProt P38936: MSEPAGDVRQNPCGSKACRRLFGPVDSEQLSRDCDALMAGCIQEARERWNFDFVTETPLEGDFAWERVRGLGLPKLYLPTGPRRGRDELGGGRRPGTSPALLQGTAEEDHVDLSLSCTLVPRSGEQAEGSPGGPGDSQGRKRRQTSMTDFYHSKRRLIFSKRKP

What was measured:
[1] = molecular target: T1, recombinant Rho GDI (from pGEX-GST-Rho GDI, GST moiety removed) (Homo sapiens (Human)) (UniProt P52565); assay: preformed RhoA-Rho GDI complex (prepared by incubation and gel filtration, p-1257)
T1 sequence: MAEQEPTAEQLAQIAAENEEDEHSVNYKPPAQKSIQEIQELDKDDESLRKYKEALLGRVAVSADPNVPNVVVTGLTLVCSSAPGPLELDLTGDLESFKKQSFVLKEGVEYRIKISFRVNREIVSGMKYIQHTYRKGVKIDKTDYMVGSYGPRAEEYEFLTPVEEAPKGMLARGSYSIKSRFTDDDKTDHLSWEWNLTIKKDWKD

[2] = molecular target: myc-tagged Rho-kinase (Homo sapiens (Human)) (UniProt O75116); assay: figure legend (FIG. 17)
[3] = molecular target: myc-tagged Rho-kinase (Homo sapiens (Human)) (UniProt O75116); assay: co-immunoprecipitation with anti-p21 antibody from 293T cells cotransfected with GFP-ΔNLS-p21 and myc-Rho-kinase, anti-myc blot

| Substance | binding [1] | binding [2] | binding [3] |
| --- | --- | --- | --- |
| prenylated (lipid-modified) RhoA purified from yeast membranes (from UniProt P61586 1-190) (enzyme) | binds |  |  |
| GFP-ΔNLS-p21 (aa 1-140) (from UniProt P38936 1-140) |  | binds | binds |
